In all, about 360,000 compounds went through this assay and about 7,500 (2.1%) were called active. Inconclusive means that the source gave no clear call. Such entries were picked first, then a sample of the others. Calls come from the whole dose curve; as a rule, active = well fitted inhibition curve with a large enough effect; inconclusive = small, poorly fitted or top-dose-only effect, or effect the other way; inactive = flat fitted curve, though single readings scatter. A potency beside an inconclusive call is a rough fit, not a confirmed value.
Test: Nrf2 qHTS screen for inhibitors; note: nearly all actives have a fitted effect of over 60% in size
Conditions: A549 ARE-Fluc reporter, luciferase luminescence, 18-24 h; activity change, negative = inhibition: at 46 µM (top of the series)
How it was run: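 A549 ARE_Fluc cells, 5000/well, 5% FBS OPTI-MEM; compounds in dose-response, 18-24 h at 37 °C/5% CO2; CellTiter-Fluor viability read (Ex 405/Em 525), then BugLite luciferase luminescence = Nrf2 activity.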
% is set by controls: 0 for no effect and ±100 for the full control effect; potency is the fitted concentration of half-maximal effect.

Structure (SMILES)	Potency	activity change, negative = inhibition
CC1(C)C(=O)Nc2ccccc2N1C(=O)CSc1nc(-c2ccccc2)cs1	inconclusive: 29.1 µM [falling, single point]	
CCOC(=O)N1CCN(C(=O)C(=O)NN)CC1		inactive: -5.77%
C/C(N)=C(/C#N)C(=O)CSc1nnc(-c2ccc3c(c2)OCO3)o1	inconclusive: 0.731 µM [activator, partial curve, poor fit]	
O=C(Nc1cccnc1)c1ccc(C(=O)Nc2cccnc2)cc1	inconclusive: 2.31 µM [falling, full curve, poor fit]	
CCOCCCNC(=O)c1cc2c(=O)n3ccccc3nc2s1	inconclusive: 4.11 µM [activator, full curve, poor fit]	
Cc1ccc(C)c(N2CCN(C(=O)c3ccc(CS(=O)Cc4ccc(Cl)cc4)o3)CC2)c1 (stereo unspecified)	active: 20.6 µM	
Cc1ccc(C)c(N2CCN(C(=O)CCC(=O)Nc3nnc(C(F)(F)F)s3)CC2)c1	inconclusive: 29.1 µM [falling, single point]	
Cc1ccc(S(=O)(=O)N(C)CCCC(=O)Nc2ccncc2)cc1	active: 9.2 µM	
O=C(NCc1ccccn1)c1ccc(N2CCCC2=O)cc1	inconclusive: 14.6 µM [activator, single point]	
COCc1nnc(NC(=O)c2ccc(S(=O)(=O)N(CC(C)C)CC(C)C)cc2)o1	inconclusive: 20.6 µM [falling, partial curve]	
COc1ccc(-c2cc(-c3ccccc3)nc(-c3ccc4c(c3)NC(=O)CO4)c2)cc1	inconclusive: 29.1 µM [falling, single point]	
CCn1c(SCc2ccc(F)cc2)nc2c(c1=O)SCC2	inconclusive: 25.9 µM [falling, single point]	
c1ccc(-c2nc(NC3CC3)nc(-n3ccnc3)n2)cc1	inconclusive: 14.6 µM [falling, partial curve, poor fit]	
O=C(Nc1cccc(C(=O)Nc2cccc(Br)c2)c1)c1ccccc1	inconclusive: 20.6 µM [falling, single point]	
CCc1ccc(NC(=O)Cn2c(=O)n(Cc3nc(C)no3)c(=O)c3cc4c(cc32)OCO4)cc1	inconclusive: 29.1 µM [activator, single point]	
COc1ccc(NS(=O)(=O)c2ccc(NC(=O)CCNS(=O)(=O)c3ccc(C)cc3)cc2)cc1	inconclusive: 29.1 µM [falling, single point]	
COc1ccc(C(C(=O)NC2CCCC2)N(C(=O)c2snc(-c3ccc(F)cc3)c2N)c2ccc(F)cc2)cc1 (stereo unspecified)	inconclusive: 23.1 µM [falling, single point]	
Cc1nn(-c2ccc(C(=O)O)cc2)c(N)c1-c1ccccc1	inconclusive: 1.84 µM [activator, full curve]	
Cc1cc(C)cc(NC(=S)N2CCN(c3ncccn3)CC2)c1	inconclusive: 29.1 µM [falling, single point]	
NC(=O)c1cnn(-c2ccc3ccccc3c2)c1N	inconclusive: 5.17 µM [activator, full curve]	
C[n+]1c(-c2ccccc2)sc([S-])c1-c1ccccc1	inconclusive: 20.6 µM [falling, partial curve, poor fit]	
CCOc1ccc(S(=O)(=O)N2CCN(C(=O)CCOc3ccccc3C)CC2)cc1	active: 16.4 µM	

Structure (SMILES)	Potency	activity change, negative = inhibition
CCOc1ccc(C2=Nn3cnnc3SC2)cc1	inconclusive: 6.51 µM [activator, single point]	
CCCC(C(=O)O)N1C(=O)/C(=C2\C(=O)N(C)c3ccccc32)SC1=S (stereo unspecified)	inconclusive: 4.11 µM [falling, full curve, poor fit]	
O=C(Nc1ccccc1-c1nc2ccccc2[nH]1)c1ccc(N2C(=O)CCC2=O)cc1		inactive: -17.9%
Cc1cccn2cc(-c3cccc(S(=O)(=O)N4CCCCC4)c3)nc12	inconclusive: 29.1 µM [falling, single point]	
Cc1ccc(NC2c3ncccc3C(=O)N2Cc2cccs2)cc1 (stereo unspecified)		inactive: -10.1%
COC(=O)C(CC(C)C)N(Cc1cc(OC)cc(OC)c1)S(=O)(=O)c1ccccc1Br (stereo unspecified)	inconclusive: 29.1 µM [falling, single point]	
COc1ccc(/C=C(\NC(=O)c2ccccc2)C(=O)N/N=C/c2sccc2C)cc1	inconclusive: 20.6 µM [activator, single point]	
CCOC(=O)c1c(C)[nH]c(C)c1S(=O)(=O)N1CCCC(C(=O)Nc2ccccc2OCC)C1 (stereo unspecified)	inconclusive: 29.1 µM [activator, single point]	
CCc1cccc(CC)c1NC(=O)C(CC)n1nc(C)n2c(cc3cc(C)ccc32)c1=O (stereo unspecified)	inconclusive: 29.1 µM [activator, single point]	
CC(C)(C)n1ncc2c(=O)n(CC(=O)N3CCCCCC3)cnc21	inconclusive: 29.1 µM [activator, single point]	
O=C(/C=C/c1ccc(F)cc1)N1CCN(c2ncccn2)CC1	inconclusive: 2.31 µM [activator, full curve, poor fit]	
CC(OCC(O)CN(C)CCOc1ccccc1)c1ccc(Cl)cc1 (stereo unspecified)	inconclusive: 14.6 µM [activator, partial curve, poor fit]	
COc1ccc(C2c3ccc(O)cc3Oc3ncn(CCN4CCOCC4)c(=N)c32)cc1 (stereo unspecified)		inactive: 1.35%
CCOC(=O)c1cccc(NC(=O)c2cc3cc4ccc(C)cc4nc3o2)c1		inactive: 0.721%
CCOC(=O)C1CCN(C(=O)c2cc(COc3ccc(OC)c4ccccc34)on2)CC1	inconclusive: 13 µM [activator, partial curve, poor fit]	
CCCCn1c(=O)[nH]c(=O)c2c1nc(-c1ccc(C)c([N+](=O)[O-])c1)n2CC	inconclusive: 25.9 µM [falling, partial curve, poor fit]	
COc1cccc(-c2ccc(SCC(=O)N3CCN(c4ccccc4)CC3)nn2)c1	active: 20.6 µM	
CC1=C(C(=O)OCc2ccccc2)C(c2ccccc2Br)NC(=O)N1 (stereo unspecified)	inconclusive: 23.1 µM [falling, single point]	
COc1cccc(/C=N/NC(=O)c2cccc3ccccc23)c1		inactive: -8.21%
CC(C)C(NS(=O)(=O)c1cccc2nsnc12)C(=O)NC1CCCCC1C (stereo unspecified)	inconclusive: 0.0052 µM [falling, full curve, poor fit]	
CCCCCCC[N+](CC)(CC)CCCCc1ccc(Cl)cc1	active: 16.4 µM	
Cc1cc(N)n(-c2nc3ccccc3s2)n1	inconclusive: 16.4 µM [activator, single point]	

Looked up above.
Value for CCOC(=O)N1CCN(C(=O)C(=O)NN)CC1 under activity change, negative = inhibition: inactive: -5.77%
Value for CCCCn1c(=O)[nH]c(=O)c2c1nc(-c1ccc(C)c([N+](=O)[O-])c1)n2CC under Potency: inconclusive: 25.9 µM [falling, partial curve, poor fit]
Value for O=C(Nc1ccccc1-c1nc2ccccc2[nH]1)c1ccc(N2C(=O)CCC2=O)cc1 under activity change, negative = inhibition: inactive: -17.9%

Later entries.

Structure (SMILES)	Potency	activity change, negative = inhibition
CC(=O)N1CCOc2ccc(S(=O)(=O)N3CCC(C(=O)Nc4ccc(F)cc4)CC3)cc21	inconclusive: 23.1 µM [falling, partial curve]	
COc1ccc2c(c1OC)C(=O)OC2CC(=O)c1ccc(N(C)C)cc1 (stereo unspecified)	inconclusive: 1.3 µM [activator, full curve, poor fit]	
CCOC(=O)c1cnc2ccc(OC)cc2c1NCCc1ccc(OC)c(OC)c1	active: 16.4 µM	
O=C(Nc1cc(Cl)ccn1)C1(c2ccccc2)CC1(Cl)Cl (stereo unspecified)	inconclusive: 20.6 µM [falling, single point]	
COC(=O)[C@]1(C)CCC[C@@]2(C)C3CC[C@@]4(C)C[C@]3(CCC21)CC(=O)N4Cc1ccc(OC)cc1 (stereo partly specified)	active: 14.6 µM	
CCCCNC(=O)c1nn(-c2ccc(C)cc2)c(=O)c2c1c1ccccc1n2C		inactive: 1.12%
Cc1ccc(/C=N/NC(=O)c2ccccn2)o1	inconclusive: 6.51 µM [activator, partial curve]	
O=C1C=CC2(O[C@H](c3ccccc3)[C@@H](c3ccccc3)O2)[C@H](Sc2ccccc2O)C1	inconclusive: 29.1 µM [falling, single point]	
CCOC(=O)c1c(N2C(=O)Nc3ccccc3N2O)sc2c1CCCCC2	inconclusive: 0.291 µM [falling, full curve, poor fit]	
Cc1cccc(CNC(=O)c2cccc(NC(=O)N3CCSc4ncccc43)c2)c1	inconclusive: 0.366 µM [falling, full curve, poor fit]	
CC(C)(C)Nc1nc(-c2ccc3c(c2)CCN3C(=O)C2CC2)cs1	inconclusive: 20.6 µM [activator, partial curve]	
CCC(=O)N(CC)c1nc(-c2cc(OC)ccc2OC)cs1	inconclusive: 13 µM [falling, partial curve]	
O=c1cc(N2CCOCC2)cnn1-c1ccccc1	inconclusive: 8.2 µM [activator, partial curve]	
Cc1nnc(SCc2cccc(Oc3ccccc3)c2)n1N		inactive: 0.356%
Cc1ccc(F)c(CNC(=O)C2CCC(=O)N(CCN3CCOCC3)C2)c1F (stereo unspecified)	inconclusive: 20.6 µM [falling, partial curve, poor fit]	
COc1ccc(Br)cc1CNC(=O)CSc1cc(=O)n(C)c2ccccc12		inactive: 5.26%
Cc1ccc2nc(/C(C#N)=C/c3ccc(O)c(O)c3)[nH]c2c1	inconclusive: 8.2 µM [activator, partial curve]	
Cc1ccccc1-c1noc(-c2cc3ccccc3oc2=O)n1	inconclusive: 23.1 µM [activator, single point]	
O=C(CCC(=O)c1cccs1)Nc1ccc(N2CCCCC2)cc1	inconclusive: 20.6 µM [activator, partial curve]	
COc1ccc(OCC(=O)N2CCN(c3nnc(-c4ccccc4)c4ccccc34)CC2)cc1	inconclusive: 29.1 µM [falling, single point]	
Cc1ccc(/C=N/n2cnc3sc(C)c(C)c3c2=O)o1		inactive: 1.8%
O=C(Nc1nc2c(s1)CCCC2)c1ccc(S(=O)(=O)N2CCCc3ccccc32)cc1	active: 18.4 µM	

Source: PubChem BioAssay AID504444 (National Center for Advancing Translational Sciences (NCATS), 2011)
